# Source: the supplement of paper PMC12595434, “Development of retinoid nuclear receptor pathway antagonists through targeting aldehyde dehydrogenase 1A3” (iScience, 2025)
# Sequences of proteins named here, by UniProt entry; tags and fusion partners are left off. A change or cut given only in a name is not applied to a line headed by its entry.
# UniProt Q8N474: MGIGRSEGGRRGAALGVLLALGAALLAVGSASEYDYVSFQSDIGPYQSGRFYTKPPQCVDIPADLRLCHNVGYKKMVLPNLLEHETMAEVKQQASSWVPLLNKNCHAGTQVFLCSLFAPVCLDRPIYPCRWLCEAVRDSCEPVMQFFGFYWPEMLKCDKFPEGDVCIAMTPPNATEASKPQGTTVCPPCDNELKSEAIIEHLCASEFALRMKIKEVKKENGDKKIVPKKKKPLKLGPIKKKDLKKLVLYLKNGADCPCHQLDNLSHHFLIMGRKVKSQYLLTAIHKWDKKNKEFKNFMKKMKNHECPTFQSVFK
# UniProt Q8N3V7: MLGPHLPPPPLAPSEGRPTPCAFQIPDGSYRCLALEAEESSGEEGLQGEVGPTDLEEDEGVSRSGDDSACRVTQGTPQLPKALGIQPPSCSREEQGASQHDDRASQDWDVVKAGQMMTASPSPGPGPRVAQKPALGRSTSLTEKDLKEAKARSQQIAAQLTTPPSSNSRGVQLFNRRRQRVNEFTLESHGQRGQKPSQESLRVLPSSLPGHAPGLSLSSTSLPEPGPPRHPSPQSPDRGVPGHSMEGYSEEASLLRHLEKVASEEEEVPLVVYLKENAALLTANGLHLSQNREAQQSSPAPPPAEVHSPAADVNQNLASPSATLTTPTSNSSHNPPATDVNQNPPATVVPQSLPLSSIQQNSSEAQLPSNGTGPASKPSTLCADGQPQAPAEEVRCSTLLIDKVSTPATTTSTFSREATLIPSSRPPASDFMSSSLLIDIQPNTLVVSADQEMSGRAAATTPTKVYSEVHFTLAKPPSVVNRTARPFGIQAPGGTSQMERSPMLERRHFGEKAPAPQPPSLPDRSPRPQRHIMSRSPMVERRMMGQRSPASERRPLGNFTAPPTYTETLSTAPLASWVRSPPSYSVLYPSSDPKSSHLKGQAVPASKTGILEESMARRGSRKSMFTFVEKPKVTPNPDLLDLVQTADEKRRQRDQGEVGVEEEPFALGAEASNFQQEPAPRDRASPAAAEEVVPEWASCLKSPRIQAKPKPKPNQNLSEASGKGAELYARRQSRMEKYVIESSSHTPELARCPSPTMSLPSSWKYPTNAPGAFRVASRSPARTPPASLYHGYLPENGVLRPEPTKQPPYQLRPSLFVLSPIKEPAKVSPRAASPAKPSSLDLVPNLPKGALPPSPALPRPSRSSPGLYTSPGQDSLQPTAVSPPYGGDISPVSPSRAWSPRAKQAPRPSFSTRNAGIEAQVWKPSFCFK
# UniProt Q8N4J0: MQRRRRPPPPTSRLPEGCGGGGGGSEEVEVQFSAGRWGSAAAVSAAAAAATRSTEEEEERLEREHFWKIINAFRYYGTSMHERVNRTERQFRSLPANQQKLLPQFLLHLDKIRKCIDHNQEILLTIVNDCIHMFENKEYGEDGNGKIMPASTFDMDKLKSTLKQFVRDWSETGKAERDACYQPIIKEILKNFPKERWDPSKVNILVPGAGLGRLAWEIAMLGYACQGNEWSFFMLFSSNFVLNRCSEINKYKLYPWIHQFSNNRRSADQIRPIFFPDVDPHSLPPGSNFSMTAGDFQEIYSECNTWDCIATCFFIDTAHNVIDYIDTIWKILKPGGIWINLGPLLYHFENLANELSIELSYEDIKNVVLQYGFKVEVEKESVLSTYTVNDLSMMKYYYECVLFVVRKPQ
# UniProt Q8IYA6: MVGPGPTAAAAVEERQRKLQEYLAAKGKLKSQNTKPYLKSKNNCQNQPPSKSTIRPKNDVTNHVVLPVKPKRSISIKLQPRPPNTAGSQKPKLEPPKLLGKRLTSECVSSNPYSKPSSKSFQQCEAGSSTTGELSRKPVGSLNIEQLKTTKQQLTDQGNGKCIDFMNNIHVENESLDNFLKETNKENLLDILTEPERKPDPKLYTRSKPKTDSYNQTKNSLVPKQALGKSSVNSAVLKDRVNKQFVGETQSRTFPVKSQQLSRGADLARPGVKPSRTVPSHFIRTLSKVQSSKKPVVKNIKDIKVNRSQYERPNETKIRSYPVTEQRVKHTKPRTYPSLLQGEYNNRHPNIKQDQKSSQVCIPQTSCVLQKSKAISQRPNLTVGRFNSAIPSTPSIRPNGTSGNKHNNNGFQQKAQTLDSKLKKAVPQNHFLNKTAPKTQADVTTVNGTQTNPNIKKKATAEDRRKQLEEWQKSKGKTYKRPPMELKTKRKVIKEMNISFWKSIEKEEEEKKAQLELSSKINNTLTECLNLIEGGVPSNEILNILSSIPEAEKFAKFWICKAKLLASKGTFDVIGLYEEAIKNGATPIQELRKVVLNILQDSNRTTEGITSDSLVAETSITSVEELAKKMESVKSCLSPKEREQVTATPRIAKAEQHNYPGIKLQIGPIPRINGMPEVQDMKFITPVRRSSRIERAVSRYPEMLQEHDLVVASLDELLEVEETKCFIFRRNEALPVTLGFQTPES
# UniProt Q8IWU2: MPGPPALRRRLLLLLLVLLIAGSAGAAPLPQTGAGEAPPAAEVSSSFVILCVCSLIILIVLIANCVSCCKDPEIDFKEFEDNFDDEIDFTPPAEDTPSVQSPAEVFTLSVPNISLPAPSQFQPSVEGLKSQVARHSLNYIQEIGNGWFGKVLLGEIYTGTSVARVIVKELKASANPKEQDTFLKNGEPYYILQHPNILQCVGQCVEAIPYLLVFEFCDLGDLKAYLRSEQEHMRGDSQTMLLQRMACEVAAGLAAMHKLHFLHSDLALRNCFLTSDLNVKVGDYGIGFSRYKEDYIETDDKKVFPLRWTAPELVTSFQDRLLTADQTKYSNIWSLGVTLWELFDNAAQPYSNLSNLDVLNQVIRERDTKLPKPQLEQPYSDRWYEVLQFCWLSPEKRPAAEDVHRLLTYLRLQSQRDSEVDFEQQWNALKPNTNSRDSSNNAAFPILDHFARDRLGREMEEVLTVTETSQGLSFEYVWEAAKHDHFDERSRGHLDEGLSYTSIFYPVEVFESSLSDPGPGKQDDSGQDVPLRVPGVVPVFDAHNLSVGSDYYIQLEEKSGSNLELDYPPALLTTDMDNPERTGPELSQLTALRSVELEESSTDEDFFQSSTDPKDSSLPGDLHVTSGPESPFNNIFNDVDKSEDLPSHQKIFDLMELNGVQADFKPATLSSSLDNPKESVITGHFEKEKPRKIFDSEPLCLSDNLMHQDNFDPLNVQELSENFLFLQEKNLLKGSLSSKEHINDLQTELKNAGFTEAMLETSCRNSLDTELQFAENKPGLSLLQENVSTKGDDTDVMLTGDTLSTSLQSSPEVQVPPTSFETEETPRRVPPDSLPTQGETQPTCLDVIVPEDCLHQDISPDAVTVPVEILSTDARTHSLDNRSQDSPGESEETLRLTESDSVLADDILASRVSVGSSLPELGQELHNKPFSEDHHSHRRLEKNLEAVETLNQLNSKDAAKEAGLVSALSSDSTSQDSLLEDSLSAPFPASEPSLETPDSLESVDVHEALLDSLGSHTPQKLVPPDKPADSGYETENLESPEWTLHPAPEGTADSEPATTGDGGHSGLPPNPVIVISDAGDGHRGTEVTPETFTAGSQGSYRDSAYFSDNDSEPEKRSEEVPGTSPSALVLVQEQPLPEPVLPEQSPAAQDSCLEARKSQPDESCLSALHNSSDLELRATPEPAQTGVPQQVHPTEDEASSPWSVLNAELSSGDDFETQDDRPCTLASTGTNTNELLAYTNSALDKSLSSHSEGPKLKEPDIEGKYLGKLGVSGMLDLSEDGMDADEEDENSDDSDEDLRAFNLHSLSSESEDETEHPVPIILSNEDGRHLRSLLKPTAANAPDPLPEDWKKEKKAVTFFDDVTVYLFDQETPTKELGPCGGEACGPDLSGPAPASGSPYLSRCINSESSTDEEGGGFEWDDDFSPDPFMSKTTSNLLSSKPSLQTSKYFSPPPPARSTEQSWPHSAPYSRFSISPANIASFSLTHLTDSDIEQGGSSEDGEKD
# UniProt Q86VP6: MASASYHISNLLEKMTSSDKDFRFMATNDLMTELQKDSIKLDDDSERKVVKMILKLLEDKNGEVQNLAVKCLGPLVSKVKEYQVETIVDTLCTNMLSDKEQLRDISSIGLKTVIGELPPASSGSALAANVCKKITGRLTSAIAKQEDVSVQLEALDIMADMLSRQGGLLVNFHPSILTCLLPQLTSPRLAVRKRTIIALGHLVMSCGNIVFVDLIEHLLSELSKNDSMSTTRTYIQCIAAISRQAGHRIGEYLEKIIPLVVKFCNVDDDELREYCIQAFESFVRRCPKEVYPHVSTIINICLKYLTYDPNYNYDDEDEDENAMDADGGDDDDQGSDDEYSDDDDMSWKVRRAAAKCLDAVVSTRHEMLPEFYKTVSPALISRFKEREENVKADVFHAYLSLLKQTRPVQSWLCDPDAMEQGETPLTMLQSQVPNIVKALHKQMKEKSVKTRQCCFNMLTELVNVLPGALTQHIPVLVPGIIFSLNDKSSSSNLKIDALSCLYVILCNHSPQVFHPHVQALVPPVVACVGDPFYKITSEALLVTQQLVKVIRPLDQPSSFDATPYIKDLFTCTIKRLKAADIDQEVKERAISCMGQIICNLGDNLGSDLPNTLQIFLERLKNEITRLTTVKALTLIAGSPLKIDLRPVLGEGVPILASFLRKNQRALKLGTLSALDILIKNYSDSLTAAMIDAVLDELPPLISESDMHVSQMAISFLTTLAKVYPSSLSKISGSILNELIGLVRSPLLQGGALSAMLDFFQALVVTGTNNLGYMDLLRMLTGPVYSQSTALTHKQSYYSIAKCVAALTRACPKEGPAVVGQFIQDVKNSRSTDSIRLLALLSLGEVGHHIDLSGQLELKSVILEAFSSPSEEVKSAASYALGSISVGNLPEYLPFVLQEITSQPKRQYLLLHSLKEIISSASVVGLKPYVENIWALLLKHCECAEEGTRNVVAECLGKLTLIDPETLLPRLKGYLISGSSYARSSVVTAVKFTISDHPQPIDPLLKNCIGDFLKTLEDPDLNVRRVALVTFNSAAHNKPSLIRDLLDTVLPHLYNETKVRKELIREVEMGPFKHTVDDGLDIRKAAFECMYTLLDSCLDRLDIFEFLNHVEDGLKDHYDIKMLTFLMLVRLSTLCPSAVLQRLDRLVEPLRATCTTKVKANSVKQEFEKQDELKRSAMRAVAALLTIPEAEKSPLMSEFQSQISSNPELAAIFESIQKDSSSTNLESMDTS
# UniProt Q86X95: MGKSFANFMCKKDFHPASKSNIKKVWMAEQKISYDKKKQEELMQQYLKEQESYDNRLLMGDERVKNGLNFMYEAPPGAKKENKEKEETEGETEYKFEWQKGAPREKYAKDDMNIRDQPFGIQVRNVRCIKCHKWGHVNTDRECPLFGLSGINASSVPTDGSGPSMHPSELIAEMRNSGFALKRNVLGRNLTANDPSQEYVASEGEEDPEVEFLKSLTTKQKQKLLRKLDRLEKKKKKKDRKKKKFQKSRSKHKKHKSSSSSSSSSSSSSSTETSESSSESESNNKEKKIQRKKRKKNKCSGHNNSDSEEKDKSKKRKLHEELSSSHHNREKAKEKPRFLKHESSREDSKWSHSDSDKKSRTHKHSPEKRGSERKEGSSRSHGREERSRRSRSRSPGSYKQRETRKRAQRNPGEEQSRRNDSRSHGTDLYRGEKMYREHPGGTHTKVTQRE
# UniProt Q8N3R9: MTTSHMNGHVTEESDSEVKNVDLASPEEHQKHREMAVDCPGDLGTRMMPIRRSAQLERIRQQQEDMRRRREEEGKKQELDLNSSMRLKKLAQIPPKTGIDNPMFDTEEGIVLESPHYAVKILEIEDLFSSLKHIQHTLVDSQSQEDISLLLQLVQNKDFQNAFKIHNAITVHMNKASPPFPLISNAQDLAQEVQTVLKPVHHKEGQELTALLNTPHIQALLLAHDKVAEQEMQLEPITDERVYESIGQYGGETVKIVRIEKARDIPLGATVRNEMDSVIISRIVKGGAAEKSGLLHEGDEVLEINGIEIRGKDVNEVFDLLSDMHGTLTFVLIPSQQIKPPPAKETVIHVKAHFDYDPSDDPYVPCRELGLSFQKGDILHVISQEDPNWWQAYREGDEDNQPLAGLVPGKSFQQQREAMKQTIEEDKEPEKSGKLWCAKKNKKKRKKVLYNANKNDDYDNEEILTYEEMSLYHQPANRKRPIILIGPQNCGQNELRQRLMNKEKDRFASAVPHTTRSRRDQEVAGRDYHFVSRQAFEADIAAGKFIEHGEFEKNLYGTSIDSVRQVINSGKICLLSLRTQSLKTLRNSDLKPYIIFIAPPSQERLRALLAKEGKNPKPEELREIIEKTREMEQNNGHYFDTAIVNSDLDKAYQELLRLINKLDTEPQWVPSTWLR
# UniProt Q86W42: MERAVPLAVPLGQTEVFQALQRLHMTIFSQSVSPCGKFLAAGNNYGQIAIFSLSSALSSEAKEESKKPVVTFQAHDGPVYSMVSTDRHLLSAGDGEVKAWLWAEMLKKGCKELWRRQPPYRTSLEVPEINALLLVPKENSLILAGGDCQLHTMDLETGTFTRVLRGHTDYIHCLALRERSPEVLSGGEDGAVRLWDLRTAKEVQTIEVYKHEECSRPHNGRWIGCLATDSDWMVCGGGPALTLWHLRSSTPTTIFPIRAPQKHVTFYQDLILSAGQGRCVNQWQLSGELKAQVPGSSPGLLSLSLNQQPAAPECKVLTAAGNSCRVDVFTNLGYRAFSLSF
# This is one part of the list. Single values of this set are uncertain.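 Tm was set to 64 °C where no melting was found, and many curves are irregular.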
# Compound: CCc1cnccc1C(=O)Nc1cc2c(cc1F)NC(=O)CC2
# Test: melting temperature shift (DMSO Tm minus MBE1-treated Tm) in cellular thermal proteome profiling; higher = less thermal stabilization by MBE1 (negative = stabilized by MBE1)
# Settings: A375
Target,melting temperature shift (MBE1 concentration: 100 nM),melting temperature shift (MBE1 concentration: 1 uM)
PARG (UniProt Q86W56),0.647 °C,0.672 °C
SUPV3L1 (UniProt Q8IYB8),-0.0427 °C,0.22 °C
CDAN1 (UniProt Q8IWY9),0.647 °C,0.598 °C
UniProt Q8IUZ5,-3.01 °C,0.934 °C
UniProt Q86XK2,-0.908 °C,1.15 °C
DHX37 (UniProt Q8IY37),-0.84 °C,-6.92 °C
TMEM173 (UniProt Q86WV6),0.134 °C,0.153 °C
UniProt Q8N474,-1.34 °C,-4.12 °C
UniProt Q8IY31,-0.0305 °C,0.147 °C
UniProt Q8N4S0,0.311 °C,-0.58 °C
CPNE8 (UniProt Q86YQ8),-0.507 °C,0.186 °C
RHOT2 (UniProt Q8IXI1),0.818 °C,-0.0611 °C
OGFOD1 (UniProt Q8N543),-2.44 °C,0.0582 °C
UniProt Q8IXQ5,-0.964 °C,-0.179 °C
UniProt Q8N1W1,-0.108 °C,-0.287 °C
SLC15A4 (UniProt Q8N697),-3.67 °C,0.644 °C
CMTR1 (UniProt Q8N1G2),0.195 °C,0.0244 °C
UniProt Q8N8A6,-0.39 °C,-0.103 °C
UniProt Q8N8D1,-1.46 °C,-1.16 °C
SMYD4 (UniProt Q8IYR2),-0.457 °C,-0.154 °C
CEP97 (UniProt Q8IW35),0.0546 °C,-0.281 °C
CPSF7 (UniProt Q8N684),-0.906 °C,0.342 °C
UniProt Q8N201,-0.436 °C,-0.698 °C
UniProt Q8N3V7,0.989 °C,1.67 °C

# Taken from above:
# melting temperature shift (MBE1 concentration: 1 uM), CEP97 (UniProt Q8IW35) is entered as -0.281 °C
# melting temperature shift (MBE1 concentration: 100 nM), UniProt Q8N3V7 is entered as 0.989 °C
# melting temperature shift (MBE1 concentration: 1 uM), DHX37 (UniProt Q8IY37) is entered as -6.92 °C
# melting temperature shift (MBE1 concentration: 100 nM), UniProt Q86XK2 is entered as -0.908 °C
# melting temperature shift (MBE1 concentration: 100 nM), UniProt Q8IY31 is entered as -0.0305 °C

# (list continues)

Target,melting temperature shift (MBE1 concentration: 100 nM),melting temperature shift (MBE1 concentration: 1 uM)
KBTBD2 (UniProt Q8IY47),-0.383 °C,-0.221 °C
TAX1BP1 (UniProt Q86VP1),1.43 °C,1.45 °C
CARM1 (UniProt Q86X55),-0.556 °C,-0.0427 °C
DENND6A (UniProt Q8IWF6),-2.19 °C,0.446 °C
UniProt Q8N4C6,0.721 °C,3.82 °C
DDX42 (UniProt Q86XP3),-0.0897 °C,-0.173 °C
CARNMT1 (UniProt Q8N4J0),0.0604 °C,-0.791 °C
UniProt Q8N350,-3.14 °C,1.71 °C
UniProt Q8IXM2,-0.999 °C,-0.429 °C
UniProt Q86VX2,-0.168 °C,-0.778 °C
AHNAK2 (UniProt Q8IVF2),0.0604 °C,0.858 °C
UniProt Q8N5C8,-0.72 °C,-0.508 °C
LZTR1 (UniProt Q8N653),-0.509 °C,-0.0705 °C
MMAA (UniProt Q8IVH4),0.919 °C,1.48 °C
HEATR5A (UniProt Q86XA9),0.714 °C,0.482 °C
SKA3 (UniProt Q8IX90),-0.179 °C,0.122 °C
COMMD2 (UniProt Q86X83),0.592 °C,0.22 °C
HOMER1 (UniProt Q86YM7),0.812 °C,1.17 °C
MAPKAPK5 (UniProt Q8IW41),0.335 °C,0.0611 °C
CMIP (UniProt Q8IY22),-1.49 °C,0.214 °C
PDSS2 (UniProt Q86YH6),-2.2 °C,0.469 °C
UniProt Q8N6M3,-0.577 °C,0.424 °C
ARRDC1 (UniProt Q8N5I2),-0.74 °C,0.168 °C
TTC9C (UniProt Q8N5M4),-0.104 °C,-0.666 °C

Target,melting temperature shift (MBE1 concentration: 100 nM),melting temperature shift (MBE1 concentration: 1 uM)
UniProt Q8N6Q8,-0.557 °C,0.783 °C
UniProt Q86WN1,0.0611 °C,0.0244 °C
LRRC8A (UniProt Q8IWT6),-0.637 °C,0.538 °C
UniProt Q8IWI9,-0.628 °C,-0.782 °C
ANKRD13A (UniProt Q8IZ07),0.885 °C,-0.354 °C
NUDCD3 (UniProt Q8IVD9),-0.16 °C,-0.329 °C
FUK (UniProt Q8N0W3),-1.5 °C,-1.54 °C
KIAA0319L (UniProt Q8IZA0),-3.41 °C,-1.61 °C
CHSY1 (UniProt Q86X52),0.611 °C,0.464 °C
UniProt Q86VX9,1.87 °C,0.446 °C
METTL16 (UniProt Q86W50),0.366 °C,0.33 °C
UBR1 (UniProt Q8IWV7),-0.892 °C,-0.591 °C
UniProt Q8N8J7,-0.635 °C,-0.501 °C
UniProt Q86VP3,-3.42 °C,-6.02 °C
LONP2 (UniProt Q86WA8),-0.134 °C,0.33 °C
SPG20 (UniProt Q8N0X7),0.232 °C,-0.238 °C
GSPT2 (UniProt Q8IYD1),-0.402 °C,0.717 °C
GPD1L (UniProt Q8N335),0.402 °C,1.26 °C
SMAP1 (UniProt Q8IYB5),-0.0916 °C,0.385 °C
PTRH1 (UniProt Q86Y79),-0.464 °C,0.238 °C
RPTOR (UniProt Q8N122),1.03 °C,0.153 °C
ZGPAT (UniProt Q8N5A5),-0.032 °C,-0.365 °C
VRK2 (UniProt Q86Y07),0.904 °C,-0.311 °C
GPBP1 (UniProt Q86WP2),0 °C,-5.03 °C

Target,melting temperature shift (MBE1 concentration: 100 nM),melting temperature shift (MBE1 concentration: 1 uM)
ZBTB8OS (UniProt Q8IWT0),0.0977 °C,0.745 °C
RALGAPB (UniProt Q86X10),0.0847 °C,0.348 °C
ZC3H8 (UniProt Q8N5P1),-1.32 °C,-2.17 °C
UniProt Q8N442,0.875 °C,0.593 °C
TMEM126B (UniProt Q8IUX1),-1.11 °C,0.248 °C
CCAR1 (UniProt Q8IX12),1.01 °C,0.592 °C
RPP25L (UniProt Q8N5L8),-4.78 °C,-5.24 °C
SRRM1 (UniProt Q8IYB3),-1.27 °C,0.202 °C
UniProt Q8IYK4,-1.13 °C,-1.31 °C
MAP4K3 (UniProt Q8IVH8),0.568 °C,0.495 °C
PAF1 (UniProt Q8N7H5),-0.032 °C,-0.115 °C
C12ORF45 (UniProt Q8N5I9),-7.9 °C,-2.8 °C
RDH10 (UniProt Q8IZV5),-1.05 °C,0.503 °C
UniProt Q86WT1,-1.11 °C,-0.16 °C
UniProt Q8IXH7,-0.545 °C,-0.448 °C
UniProt Q86XP1,-0.08 °C,0.414 °C
DCP2 (UniProt Q8IU60),-0.912 °C,-1.87 °C
UniProt Q8N465,-0.583 °C,0.63 °C
CRLF3 (UniProt Q8IUI8),0.0188 °C,-0.0183 °C
TMEM57 (UniProt Q8N5G2),-1.17 °C,0.418 °C
UniProt Q8IYA6,-0.916 °C,-1.24 °C
CHPF (UniProt Q8IZ52),1.5 °C,0.605 °C
LMTK2 (UniProt Q8IWU2),-0.657 °C,0.58 °C
UniProt Q8N5C6,-0.282 °C,-0.0513 °C

Target,melting temperature shift (MBE1 concentration: 100 nM),melting temperature shift (MBE1 concentration: 1 uM)
MICU2 (UniProt Q8IYU8),-0.413 °C,0.324 °C
ZC3H7A (UniProt Q8IWR0),-0.82 °C,-0.493 °C
CAND1 (UniProt Q86VP6),-0.94 °C,0.195 °C
UniProt Q86Y91,-0.568 °C,-0.35 °C
ERI1 (UniProt Q8IV48),-2.03 °C,2.02 °C
UniProt Q86X95,-4.24 °C,-5.1 °C
P3H2 (UniProt Q8IVL5),-1 °C,-0.652 °C
MPP5 (UniProt Q8N3R9),-1.34 °C,-0.928 °C
ZDHHC17 (UniProt Q8IUH5),-0.951 °C,0.295 °C
CDR2L (UniProt Q86X02),-0.53 °C,0.556 °C
TTC5 (UniProt Q8N0Z6),-1.11 °C,-0.452 °C
UniProt Q8N5M9,-1.76 °C,-0.413 °C
ZDHHC13 (UniProt Q8IUH4),-0.54 °C,0.36 °C
ANKMY2 (UniProt Q8IV38),0.403 °C,0.464 °C
THOC6 (UniProt Q86W42),0.171 °C,-0.0916 °C
DNAAF5 (UniProt Q86Y56),-0.57 °C,-0.0897 °C
HPS6 (UniProt Q86YV9),-0.79 °C,-0.494 °C
ZADH2 (UniProt Q8N4Q0),-0.825 °C,0.845 °C
UniProt Q8IWU5,2.96 °C,1.96 °C
UniProt Q8N2F6,0.968 °C,-0.195 °C
UniProt Q8IWE5,-0.0672 °C,1.48 °C
MRPL50 (UniProt Q8N5N7),3.6 °C,-3.37 °C
OXR1 (UniProt Q8N573),-0.369 °C,0.00671 °C
CCAR2 (UniProt Q8N163),-0.405 °C,-0.527 °C
